## Drug screen on melanoma cell lines: apoptosis marker

Source: doi:10.1371/journal.pone.0140310, primary screening data, rounded.

Drugs:
tozasertib, 0.03 µM: Cc1cc(Nc2cc(N3CCN(C)CC3)nc(Sc3ccc(NC(=O)C4CC4)cc3)n2)n[nH]1
LFM-A13, 10 µM: C/C(O)=C(\C#N)C(=O)Nc1cc(Br)ccc1Br
NVP-TAE684, 0.4 µM: COc1cc(N2CCC(N3CCN(C)CC3)CC2)ccc1Nc1ncc(Cl)c(Nc2ccccc2S(=O)(=O)C(C)C)n1
TCS401, 8.33 µM: O=C(O)C(=O)Nc1sc2c(c1C(=O)O)CCNC2
ZM336372, 10 µM: Cc1ccc(NC(=O)c2cccc(N(C)C)c2)cc1NC(=O)c1ccc(O)cc1
perifosine, 2 µM: CCCCCCCCCCCCCCCCCCOP(=O)([O-])OC1CC[N+](C)(C)CC1
VX-702, 2 µM: NC(=O)c1ccc(N(C(N)=O)c2c(F)cccc2F)nc1-c1ccc(F)cc1F
nilotinib, 1 µM: Cc1cn(-c2cc(NC(=O)c3ccc(C)c(Nc4nccc(-c5cccnc5)n4)c3)cc(C(F)(F)F)c2)cn1
lestaurtinib, 0.02 µM: C[C@]12O[C@H](C[C@]1(O)CO)n1c3ccccc3c3c4c(c5c6ccccc6n2c5c31)CNC4=O

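Human melanoma cell lines in 1,536-well plates were treated with two drugs together for 72 h, then fixed, stained and imaged. Values are the share of nuclei positive for cleaved PARP as a percentage of the same share in the DMSO control: 100 is the control level, higher means more apoptosis. Every drug was used at one fixed concentration, the higher of two screened. These are primary screening values without error estimates. Basal and induced levels differ widely between cell lines.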
This is part of the screen, not chosen by result.

Drugs	IPC-298	COLO 792	WM3526	WM115	WM451Lu	IST-MEL1	G-361	WM1716	A101D	C32	A2058	MeWo
VX-702 and LFM-A13	90.0	127	78.6	230	134	54.9	120	58.3	58.2	70.8	69.6	37.2
tozasertib and NVP-TAE684	102	94.7	166	99.1	211	65.3	165	246	185	136	380	166
LFM-A13 and ZM336372	84.0	224	276	48.0	85.7	150	42.3	160	304	196	84.8	32.7
ZM336372 and nilotinib	38.9	50.9	98.2	59.2	53.4	75.7	98.9	113	103	102	157	109
LFM-A13 and perifosine	93.2	55.1	122	61.4	364	697	51.8	178	194	89.7	150	25.6
lestaurtinib and ZM336372	74.1	170	205	232	67.6	70.5	168	44.1	142	111	95.4	84.4
LFM-A13 and nilotinib	172	40.1	224	147	178	93.8	322	91.9	178	73.1	90.4	105
perifosine and tozasertib	50.2	59.9	119	135	175	82.6	162	79.9	231	122	168	102
ZM336372 and TCS401	342	50.1	94.4	111	207	93.1	41.3	209	81.1	95.8	88.3	181
nilotinib and perifosine	61.7	80.9	66.9	47.2	113	58.2	164	43.0	62.4	69.8	99.9	79.9
NVP-TAE684 and nilotinib	78.1	84.0	216	109	141	95.1	95.0	85.4	106	90.4	157	162
LFM-A13 and TCS401	22.0	33.9	101	105	69.5	213	62.7	107	71.6	97.9	110	98.5
NVP-TAE684 and TCS401	82.7	41.4	48.0	53.5	90.8	161	23.4	257	95.8	90.2	63.4	107
LFM-A13 and NVP-TAE684	46.6	40.6	72.7	225	229	25.7	147	339	97.8	85.4	294	127
VX-702 and lestaurtinib	186	229	166	259	165	55.2	133	68.5	210	74.6	166	89.4
tozasertib and nilotinib	119	110	124	79.7	261	59.3	119	88.8	153	196	90.2	112
perifosine and ZM336372	111	81.7	236	81.4	188	113	101	132	68.2	72.9	231	73.9
tozasertib and LFM-A13	143	94.1	124	63.6	72.4	133	248	203	42.6	87.0	90.9	255
VX-702 and perifosine	130	76.4	67.2	59.9	37.2	1020	148	50.3	178	199	127	131
VX-702 and TCS401	73.1	83.7	90.9	142	76.1	135	136	94.8	153	83.0	106	125
TCS401 and perifosine	82.0	102	98.6	188	184	134	185	221	77.5	80.2	127	20.6
VX-702 and NVP-TAE684	173	181	111	138	160	83.9	152	21.3	118	97.6	206	141
LFM-A13 and lestaurtinib	73.9	141	321	137	102	199	218	251	97.5	246	118	190
tozasertib and VX-702	121	110	147	161	74.5	111	128	169	379	167	233	140
tozasertib and lestaurtinib	388	286	274	207	102	223	241	51.2	296	206	95.2	153
lestaurtinib and nilotinib	206	283	422	305	217	34.8	344	145	104	41.0	159	149
NVP-TAE684 and ZM336372	30.5	91.3	292	111	123	62.2	216	54.0	116	135	338	54.9
TCS401 and tozasertib	79.2	160	127	96.2	180	148	54.8	36.6	87.5	164	130	287
ZM336372 and VX-702	85.1	147	280	388	77.0	41.0	147	97.0	112	64.9	85.3	360
TCS401 and lestaurtinib	33.4	109	164	29.6	75.2	115	148	26.2	133	149	117	67.1
ZM336372 and tozasertib	238	155	120	98.1	47.7	237	125	119	146	405	112	99.4